No constants are given. Whether binding was seen depends on the method and setting. In cells and extracts the contact can be indirect. A yes stands for co-enrichment or nearness to the bait. Other partners may have been found. Sequences can lack the tags named with a protein.
Molecular target: T1, YFP-FREE1 (transgenic Arabidopsis seedlings, bait of the IP-MS) (Arabidopsis thaliana) (UniProt Q9ASS2)
T1 sequence: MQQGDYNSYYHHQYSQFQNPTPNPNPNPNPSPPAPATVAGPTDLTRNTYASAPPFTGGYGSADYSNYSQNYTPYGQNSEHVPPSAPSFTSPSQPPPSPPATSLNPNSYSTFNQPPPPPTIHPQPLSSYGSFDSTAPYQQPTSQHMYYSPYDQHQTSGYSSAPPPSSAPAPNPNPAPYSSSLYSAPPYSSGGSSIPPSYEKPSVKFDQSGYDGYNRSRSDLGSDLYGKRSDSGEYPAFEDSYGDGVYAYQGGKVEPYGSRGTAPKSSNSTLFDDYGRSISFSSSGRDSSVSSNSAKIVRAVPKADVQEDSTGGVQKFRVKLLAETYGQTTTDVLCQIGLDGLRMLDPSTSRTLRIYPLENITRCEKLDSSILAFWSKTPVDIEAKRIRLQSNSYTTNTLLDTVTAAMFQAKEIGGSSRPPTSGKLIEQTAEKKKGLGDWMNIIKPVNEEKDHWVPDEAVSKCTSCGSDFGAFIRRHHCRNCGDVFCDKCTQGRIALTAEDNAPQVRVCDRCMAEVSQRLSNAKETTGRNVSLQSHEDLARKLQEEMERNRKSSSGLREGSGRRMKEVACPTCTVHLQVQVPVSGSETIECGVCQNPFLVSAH
Test: affinity purification with mass spectrometry; GFP-Trap magnetic beads at 4 °C on extracts of 5 DAG transgenic seedlings expressing YFP-FREE1 after carbon starvation for at least 18 h; IP buffer 50 mM Tris-HCl pH 7.4, 150 mM NaCl, 1 mM MgCl2, 20% glycerol, 0.2% NP-40; GFP control; iBAQ (MaxQuant)

B1: KIN10 (SnRK1α1), endogenous (enzyme, UniProt Q38997 1-512)
chain: MDGSGTGSRSGVESILPNYKLGRTLGIGSFGRVKIAEHALTGHKVAIKILNRRKIKNMEMEEKVRREIKILRLFMHPHIIRLYEVIETPTDIYLVMEYVNSGELFDYIVEKGRLQEDEARNFFQQIISGVEYCHRNMVVHRDLKPENLLLDSKCNVKIADFGLSNIMRDGHFLKTSCGSPNYAAPEVISGKLYAGPEVDVWSCGVILYALLCGTLPFDDENIPNLFKKIKGGIYTLPSHLSPGARDLIPRMLVVDPMKRVTIPEIRQHPWFQAHLPRYLAVPPPDTVQQAKKIDEEILQEVINMGFDRNHLIESLRNRTQNDGTVTYYLILDNRFRASSGYLGAEFQETMEGTPRMHPAESVASPVSHRLPGLMEYQGVGLRSQYPVERKWALGLQSRAHPREIMTEVLKALQDLNVCWKKIGHYNMKCRWVPNSSADGMLSNSMHDNNYFGDESSIIENEAAVKSPNVVKFEIQLYKTRDDKYLLDLQRVQGPQFLFLDLCAAFLAQLRVL
In the case of B1, the binding is reported as “binds”.
